Data published in the supplement of paper PMC10849652.
The other results are listed elsewhere or left out.

By UniProt entry, the sequences of proteins in these tests, tags left out. Where a name states a change or a piece, a line headed by the entry shows the natural chain unless it says otherwise.
UniProt Q9NYU2: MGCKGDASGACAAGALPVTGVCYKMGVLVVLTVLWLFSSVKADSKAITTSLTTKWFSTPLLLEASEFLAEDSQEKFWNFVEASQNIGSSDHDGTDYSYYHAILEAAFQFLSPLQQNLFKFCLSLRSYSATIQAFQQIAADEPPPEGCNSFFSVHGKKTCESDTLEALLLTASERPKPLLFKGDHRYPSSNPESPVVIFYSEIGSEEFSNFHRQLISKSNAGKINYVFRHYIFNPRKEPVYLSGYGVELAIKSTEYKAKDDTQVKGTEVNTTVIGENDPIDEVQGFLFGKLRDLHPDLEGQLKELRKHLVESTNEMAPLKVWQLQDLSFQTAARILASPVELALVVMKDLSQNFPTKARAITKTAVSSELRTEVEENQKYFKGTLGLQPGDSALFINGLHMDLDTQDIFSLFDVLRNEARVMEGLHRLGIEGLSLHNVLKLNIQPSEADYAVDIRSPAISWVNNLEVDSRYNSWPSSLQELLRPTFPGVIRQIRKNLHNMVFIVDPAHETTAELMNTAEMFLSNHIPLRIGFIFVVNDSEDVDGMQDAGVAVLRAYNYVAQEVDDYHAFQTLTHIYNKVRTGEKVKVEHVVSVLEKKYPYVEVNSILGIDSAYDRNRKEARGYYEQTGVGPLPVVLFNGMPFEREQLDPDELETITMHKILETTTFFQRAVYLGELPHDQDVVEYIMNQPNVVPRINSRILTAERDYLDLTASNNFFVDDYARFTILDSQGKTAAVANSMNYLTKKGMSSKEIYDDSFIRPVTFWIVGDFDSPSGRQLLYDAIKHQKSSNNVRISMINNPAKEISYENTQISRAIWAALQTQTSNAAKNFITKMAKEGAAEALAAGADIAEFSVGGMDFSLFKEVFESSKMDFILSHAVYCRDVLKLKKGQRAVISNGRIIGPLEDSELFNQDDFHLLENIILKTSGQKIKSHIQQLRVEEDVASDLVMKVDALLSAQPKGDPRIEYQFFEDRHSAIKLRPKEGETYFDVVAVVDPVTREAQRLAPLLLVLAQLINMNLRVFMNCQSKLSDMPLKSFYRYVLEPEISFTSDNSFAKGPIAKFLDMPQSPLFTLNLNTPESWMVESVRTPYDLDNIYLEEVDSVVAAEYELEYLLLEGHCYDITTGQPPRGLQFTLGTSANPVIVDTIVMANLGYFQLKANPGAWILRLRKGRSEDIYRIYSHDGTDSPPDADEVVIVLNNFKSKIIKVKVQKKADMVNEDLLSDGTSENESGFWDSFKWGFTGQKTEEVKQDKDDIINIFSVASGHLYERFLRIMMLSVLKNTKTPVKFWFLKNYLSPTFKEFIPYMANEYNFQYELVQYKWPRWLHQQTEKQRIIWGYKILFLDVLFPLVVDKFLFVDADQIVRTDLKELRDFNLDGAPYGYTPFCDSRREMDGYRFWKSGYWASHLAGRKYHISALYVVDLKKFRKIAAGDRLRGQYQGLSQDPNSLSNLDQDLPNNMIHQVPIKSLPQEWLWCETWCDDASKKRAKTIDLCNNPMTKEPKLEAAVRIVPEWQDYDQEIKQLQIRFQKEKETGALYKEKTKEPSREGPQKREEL
UniProt Q9BRT2: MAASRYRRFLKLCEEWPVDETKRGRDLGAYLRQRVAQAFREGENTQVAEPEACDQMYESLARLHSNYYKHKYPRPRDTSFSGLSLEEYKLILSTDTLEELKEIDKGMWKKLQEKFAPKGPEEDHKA
UniProt P45974: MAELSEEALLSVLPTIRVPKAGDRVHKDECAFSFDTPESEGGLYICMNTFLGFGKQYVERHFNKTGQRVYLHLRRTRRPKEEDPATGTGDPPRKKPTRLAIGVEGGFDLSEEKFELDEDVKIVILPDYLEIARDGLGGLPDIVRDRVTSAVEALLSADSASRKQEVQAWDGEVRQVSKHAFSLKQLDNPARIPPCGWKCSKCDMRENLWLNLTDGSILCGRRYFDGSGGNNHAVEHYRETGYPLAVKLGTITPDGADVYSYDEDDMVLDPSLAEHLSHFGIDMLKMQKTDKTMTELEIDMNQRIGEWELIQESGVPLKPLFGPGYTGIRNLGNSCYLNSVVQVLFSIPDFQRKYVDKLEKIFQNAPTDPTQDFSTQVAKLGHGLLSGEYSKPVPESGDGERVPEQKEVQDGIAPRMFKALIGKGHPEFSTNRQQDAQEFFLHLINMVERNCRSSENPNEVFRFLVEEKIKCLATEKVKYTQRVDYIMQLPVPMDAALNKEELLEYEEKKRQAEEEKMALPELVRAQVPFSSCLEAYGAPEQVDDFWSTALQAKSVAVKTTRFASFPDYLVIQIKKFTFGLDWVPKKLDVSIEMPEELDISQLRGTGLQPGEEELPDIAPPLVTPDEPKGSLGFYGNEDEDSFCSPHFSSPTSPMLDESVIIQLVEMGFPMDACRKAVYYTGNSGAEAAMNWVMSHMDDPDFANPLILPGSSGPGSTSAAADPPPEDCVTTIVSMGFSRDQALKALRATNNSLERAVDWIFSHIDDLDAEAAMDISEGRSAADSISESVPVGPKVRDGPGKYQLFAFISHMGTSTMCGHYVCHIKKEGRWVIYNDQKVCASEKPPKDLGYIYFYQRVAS
UniProt P22415: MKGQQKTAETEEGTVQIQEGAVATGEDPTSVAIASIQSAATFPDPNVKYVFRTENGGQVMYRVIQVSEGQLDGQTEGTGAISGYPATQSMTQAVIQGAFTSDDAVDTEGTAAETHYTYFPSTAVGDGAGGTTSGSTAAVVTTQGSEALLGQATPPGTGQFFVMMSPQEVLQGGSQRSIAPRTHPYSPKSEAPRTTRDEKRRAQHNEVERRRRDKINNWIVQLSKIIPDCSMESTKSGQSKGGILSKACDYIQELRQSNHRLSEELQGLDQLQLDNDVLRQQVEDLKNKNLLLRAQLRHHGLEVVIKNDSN
UniProt Q93008, whole entry, looked up: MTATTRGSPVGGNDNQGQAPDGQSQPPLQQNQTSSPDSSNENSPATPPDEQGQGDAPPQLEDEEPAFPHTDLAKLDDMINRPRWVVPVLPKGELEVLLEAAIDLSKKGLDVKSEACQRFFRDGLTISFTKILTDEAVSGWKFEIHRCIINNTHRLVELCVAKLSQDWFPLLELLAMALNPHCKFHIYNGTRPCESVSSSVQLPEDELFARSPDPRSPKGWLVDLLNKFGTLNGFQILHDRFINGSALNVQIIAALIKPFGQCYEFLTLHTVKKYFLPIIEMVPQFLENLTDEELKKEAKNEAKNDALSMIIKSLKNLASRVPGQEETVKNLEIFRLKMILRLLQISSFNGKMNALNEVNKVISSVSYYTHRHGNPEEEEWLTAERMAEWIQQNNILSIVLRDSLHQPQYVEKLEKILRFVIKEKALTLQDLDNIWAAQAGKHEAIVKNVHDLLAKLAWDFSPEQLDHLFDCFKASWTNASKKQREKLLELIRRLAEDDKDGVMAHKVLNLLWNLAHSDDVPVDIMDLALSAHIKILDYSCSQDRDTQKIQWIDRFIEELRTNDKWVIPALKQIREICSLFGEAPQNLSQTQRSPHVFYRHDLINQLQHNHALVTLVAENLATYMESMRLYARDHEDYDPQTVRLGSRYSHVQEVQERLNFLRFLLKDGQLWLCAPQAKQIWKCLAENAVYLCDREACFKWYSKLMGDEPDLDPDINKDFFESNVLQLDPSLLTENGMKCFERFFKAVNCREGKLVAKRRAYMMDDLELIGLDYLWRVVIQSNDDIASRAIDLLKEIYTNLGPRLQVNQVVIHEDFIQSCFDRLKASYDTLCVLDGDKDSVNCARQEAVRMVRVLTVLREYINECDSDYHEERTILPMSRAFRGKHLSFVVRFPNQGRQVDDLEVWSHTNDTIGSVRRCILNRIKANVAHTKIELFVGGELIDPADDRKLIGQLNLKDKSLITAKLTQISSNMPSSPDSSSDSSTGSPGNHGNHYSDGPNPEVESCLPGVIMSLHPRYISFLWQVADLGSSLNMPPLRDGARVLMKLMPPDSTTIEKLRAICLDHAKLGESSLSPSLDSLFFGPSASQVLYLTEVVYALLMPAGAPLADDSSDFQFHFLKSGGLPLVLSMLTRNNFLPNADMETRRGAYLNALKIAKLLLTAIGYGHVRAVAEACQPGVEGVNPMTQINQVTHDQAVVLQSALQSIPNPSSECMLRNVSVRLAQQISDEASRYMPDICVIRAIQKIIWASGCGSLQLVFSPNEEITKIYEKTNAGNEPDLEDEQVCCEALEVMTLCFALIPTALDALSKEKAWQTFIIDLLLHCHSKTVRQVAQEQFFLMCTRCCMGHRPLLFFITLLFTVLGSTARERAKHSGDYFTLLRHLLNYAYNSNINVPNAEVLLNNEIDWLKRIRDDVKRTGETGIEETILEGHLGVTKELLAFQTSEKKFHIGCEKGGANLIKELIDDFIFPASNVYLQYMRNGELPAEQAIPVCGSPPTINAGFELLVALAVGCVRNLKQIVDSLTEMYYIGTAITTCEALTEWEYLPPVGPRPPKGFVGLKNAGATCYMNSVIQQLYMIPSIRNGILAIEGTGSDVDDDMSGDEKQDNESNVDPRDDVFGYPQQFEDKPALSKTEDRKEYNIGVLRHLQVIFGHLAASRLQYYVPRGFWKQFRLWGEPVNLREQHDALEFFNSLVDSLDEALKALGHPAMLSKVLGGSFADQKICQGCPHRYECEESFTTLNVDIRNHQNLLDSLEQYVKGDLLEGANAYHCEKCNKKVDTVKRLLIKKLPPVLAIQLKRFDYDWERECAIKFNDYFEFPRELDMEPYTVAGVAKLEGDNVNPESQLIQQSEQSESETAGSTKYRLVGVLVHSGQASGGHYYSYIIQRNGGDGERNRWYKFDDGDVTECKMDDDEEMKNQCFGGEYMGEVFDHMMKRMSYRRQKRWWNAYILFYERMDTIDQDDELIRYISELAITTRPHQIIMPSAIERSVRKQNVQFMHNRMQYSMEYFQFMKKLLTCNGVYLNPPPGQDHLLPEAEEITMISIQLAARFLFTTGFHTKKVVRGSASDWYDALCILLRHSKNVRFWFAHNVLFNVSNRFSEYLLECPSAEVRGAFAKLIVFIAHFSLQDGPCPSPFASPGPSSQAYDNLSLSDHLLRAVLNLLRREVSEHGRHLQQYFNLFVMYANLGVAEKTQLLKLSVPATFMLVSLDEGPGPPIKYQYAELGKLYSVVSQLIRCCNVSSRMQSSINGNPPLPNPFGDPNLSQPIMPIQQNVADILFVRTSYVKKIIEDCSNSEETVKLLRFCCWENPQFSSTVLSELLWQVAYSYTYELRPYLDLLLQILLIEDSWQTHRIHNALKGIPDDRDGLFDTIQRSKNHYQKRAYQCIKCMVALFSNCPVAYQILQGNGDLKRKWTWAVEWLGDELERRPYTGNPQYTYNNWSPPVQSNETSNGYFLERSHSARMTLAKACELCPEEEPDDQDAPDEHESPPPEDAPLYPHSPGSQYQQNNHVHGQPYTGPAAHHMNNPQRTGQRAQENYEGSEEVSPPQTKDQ
UniProt Q9H3U1: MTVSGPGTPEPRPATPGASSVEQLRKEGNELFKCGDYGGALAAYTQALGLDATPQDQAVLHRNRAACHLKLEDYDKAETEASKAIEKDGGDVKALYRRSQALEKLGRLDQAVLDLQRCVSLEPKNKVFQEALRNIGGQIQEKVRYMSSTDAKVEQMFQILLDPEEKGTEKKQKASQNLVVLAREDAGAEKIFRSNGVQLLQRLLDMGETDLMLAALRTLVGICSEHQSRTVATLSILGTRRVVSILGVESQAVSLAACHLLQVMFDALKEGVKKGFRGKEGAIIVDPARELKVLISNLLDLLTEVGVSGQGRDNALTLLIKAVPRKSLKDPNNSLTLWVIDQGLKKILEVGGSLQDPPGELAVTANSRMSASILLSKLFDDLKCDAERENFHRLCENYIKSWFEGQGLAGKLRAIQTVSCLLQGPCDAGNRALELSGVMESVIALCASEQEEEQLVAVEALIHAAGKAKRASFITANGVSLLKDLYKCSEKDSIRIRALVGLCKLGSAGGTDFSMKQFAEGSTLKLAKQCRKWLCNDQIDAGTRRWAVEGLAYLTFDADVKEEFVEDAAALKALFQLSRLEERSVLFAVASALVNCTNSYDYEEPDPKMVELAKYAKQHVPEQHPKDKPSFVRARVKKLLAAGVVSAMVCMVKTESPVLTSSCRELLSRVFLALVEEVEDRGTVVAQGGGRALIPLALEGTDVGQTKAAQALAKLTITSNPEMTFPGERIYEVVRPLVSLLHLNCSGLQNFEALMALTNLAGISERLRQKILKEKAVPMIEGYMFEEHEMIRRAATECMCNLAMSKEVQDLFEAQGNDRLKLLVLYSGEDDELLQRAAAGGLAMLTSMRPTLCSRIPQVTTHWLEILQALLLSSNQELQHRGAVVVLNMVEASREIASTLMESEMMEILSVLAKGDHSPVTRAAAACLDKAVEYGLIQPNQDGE

Assays:
Assay in all cases: log2 fold change, soluble protein after heating vs DMSO (PISA); higher = thermal stabilisation; K562 lysate, 10 uM; active = over 0.2 and 3.5 SD of the protein, either way, in both replicates (recomputed)
[1] = compound: CCCS(=O)(=O)Nc1ccc(F)c(C(=O)c2c[nH]c3ncc(-c4ccc(Cl)cc4)cc23)c1F [vemurafenib]
How it was run: (§1)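 Values give the log-two fold change in thermal stability against solvent controls, from duplicates. Crude K562 extract at 1 mg/mL protein, made by dounce homogenisation in PBS pH 7.4 with 1 mM MgCl2, was treated with 10 μM compound for 30 min. After 3 min heating across 48°C-58°C, aliquots were pooled, adjusted to 0.5% NP-40 at 4°C and centrifuged at 21,000xg for 90 min. The supernatant was measured by TMTpro 16plex LC-MS/MS with channel sums equalised.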

[2] = compound: CCCS(=O)(=O)Nc1ccc(F)c(C(=O)c2c[nH]c3ncc(Cl)cc23)c1F
How it was run: as §1

[3] = compound: CCN(CCCOc1ccc2c(Nc3cc(CC(=O)Nc4cccc(F)c4)[nH]n3)ncnc2c1)CCOP(=O)(O)O [barasertib]
How it was run: as §1

[4] = compound: CC[C@@H]1C(=O)N(C)c2cnc(Nc3ccc(C(=O)NC4CCN(C)CC4)cc3OC)nc2N1C1CCCC1
How it was run: as §1

[5] = compound: CC[C@@H]1C(=O)N(C)c2cnc(Nc3ccc(C(=O)N[C@H]4CC[C@H](N5CCN(CC6CC6)CC5)CC4)cc3OC)nc2N1C(C)C [volasertib]
How it was run: as §1

[6] = compound: CCn1c(C(=O)N(C2CC2)C2CC2)cc2c3c(ncn3C)c(Nc3cc(C)n(C)n3)nc21
How it was run: as §1

[7] = compound: CCn1cc(-c2ccnc3[nH]c(-c4cccc(CN(C)C)c4)cc23)c(-c2ccc(NC(=O)N(C)C)cc2)n1
How it was run: as §1

[8] = compound: CN1CCC(CNc2ccc3ncc(-c4cccc(OC(F)(F)F)c4)n3n2)CC1
How it was run: as §1

[9] = compound: CN1CCN(CCOc2cc(OC3CCOCC3)c3c(Nc4c(Cl)ccc5c4OCO5)ncnc3c2)CC1 [saracatinib]
How it was run: as §1

[10] = compound: CN1CCN(c2nc(C3=C(c4c[nH]c5ccccc45)C(=O)NC3=O)c3ccccc3n2)CC1 [sotrastaurin]
How it was run: as §1

[11] = compound: CN1CC[C@H](c2c(O)cc(O)c3c(=O)cc(-c4ccccc4Cl)oc23)[C@H](O)C1 [alvocidib]
How it was run: as §1

[12] = compound: CN1CCc2c(c3ccccc3n2Cc2ccc(C(=O)NO)cc2)C1 [Tubastatin A]
How it was run: as §1

[13] = compound: CNC(=O)C1=CC=CC=C1NC2=NC(=NC=C2Cl)NC3=C(C=C(C=C3)N4CCOCC4)OC
How it was run: as §1

[14] = compound: CNC(=O)c1ccc(Nc2ncc(C(F)(F)F)c(NCc3nccnc3N(C)S(C)(=O)=O)n2)cc1 [defactinib]
How it was run: as §1

[15] = compound: CNc1nc(-c2ccc3c(N)n[nH]c3c2)cc(N2C[C@@H](C(=O)NC3CCCCC3)CC[C@H]2C)n1
How it was run: as §1

[16] = compound: COC(=O)N[C@@H](C)CNc1nccc(-c2cn(C(C)C)nc2-c2cc(Cl)cc(NS(C)(=O)=O)c2F)n1 [encorafenib]
How it was run: as §1

[17] = compound: COC(=O)[C@H](CCSC)NC(=O)C1=C(C=C(C=C1)NC[C@H](CS)N)C2=CC=CC=C2
How it was run: as §1

[18] = compound: COc1cc(Nc2ncc3c(n2)-c2ccc(Cl)cc2C(c2c(F)cccc2OC)=NC3)ccc1C(=O)O [alisertib]
How it was run: as §1

[19] = compound: COc1cc2nc(-c3cc(F)ccc3O)nc(N[C@@H]3CNC[C@H]3C(C)(C)O)c2cc1OC
How it was run: as §1

[20] = compound: COc1cc2ncnc(Nc3ccc(F)c(Cl)c3)c2cc1OCCCN1CCOCC1 [gefitinib]
How it was run: as §1

Measured: log2 fold change

UGGT1 (UniProt Q9NYU2)
inactive: [1] 0.007 | [2] 0.006 | [3] -0.001 | [4] -0.011 | [5] 0.001 | [6] 0 | [7] -0.05 | [8] 0.012 | [9] 0.006 | [10] 0.006 | [11] -0.009 | [12] 0.018 | [13] 0.006 | [14] -0.005 | [15] -0.001 | [16] 0.009 | [17] -0.006 | [18] -0.001 | [19] 0.011 | [20] -0.01

UQCC2 (UniProt Q9BRT2)
inactive: [1] -0.074 | [2] 0.005 | [3] -0.039 | [4] -0.013 | [5] 0.039 | [6] -0.039 | [8] -0.086 | [9] -0.04 | [10] -0.083 | [11] 0.079 | [12] 0.05 | [13] -0.027 | [14] 0 | [15] 0.006 | [16] 0.021 | [17] -0.025 | [18] 0.029 | [19] 0.017 | [20] -0.059
active: [7] 0.287

VCL (UniProt P18206)
inactive: [1] -0.009 | [2] -0.003 | [3] -0.019 | [4] -0.006 | [5] 0.024 | [6] -0.022 | [7] -0.107 | [8] 0.05 | [9] 0.012 | [10] -0.005 | [11] -0.023 | [12] 0.052 | [13] -0.019 | [14] -0.005 | [15] 0.022 | [16] 0 | [17] -0.036 | [18] 0.004 | [19] 0.004 | [20] 0.004

USP5 isoform 2 (UniProt P45974)
inactive: [1] -0.005 | [2] -0.004 | [3] -0.026 | [4] 0.027 | [5] 0.014 | [6] -0.005 | [7] -0.031 | [8] 0.019 | [9] 0.002 | [10] 0.016 | [11] 0 | [12] 0.06 | [13] 0 | [14] -0.027 | [15] -0.024 | [16] -0.004 | [17] 0.045 | [18] -0.025 | [19] -0.01 | [20] -0.001

USP3 (UniProt Q9Y6I4)
inactive: [1] 0.041 | [2] -0.007 | [3] 0.008 | [4] 0.023 | [5] -0.012 | [6] -0.011 | [7] 0.064 | [8] -0.041 | [9] 0.011 | [10] 0.011 | [11] 0.002 | [12] -0.154 | [13] -0.046 | [14] 0.013 | [15] -0.024 | [16] 0.03 | [17] 0.022 | [18] -0.008 | [19] 0.028 | [20] -0.005

UQCRC1 (UniProt P31930)
inactive: [1] -0.013 | [2] 0.004 | [3] -0.018 | [4] 0.04 | [5] 0.003 | [6] 0.009 | [7] -0.013 | [8] 0.028 | [9] -0.003 | [10] -0.036 | [11] -0.022 | [12] 0.061 | [13] 0.012 | [14] -0.01 | [15] 0.026 | [16] -0.014 | [17] 0.002 | [18] -0.007 | [19] 0.028 | [20] 0.004

Pulled one by one from above, two records:
UQCRC1 (UniProt P31930)
inactive: [1] -0.013 | [2] 0.004 | [3] -0.018 | [4] 0.04 | [5] 0.003 | [6] 0.009 | [7] -0.013 | [8] 0.028 | [9] -0.003 | [10] -0.036 | [11] -0.022 | [12] 0.061 | [13] 0.012 | [14] -0.01 | [15] 0.026 | [16] -0.014 | [17] 0.002 | [18] -0.007 | [19] 0.028 | [20] 0.004

USP3 (UniProt Q9Y6I4)
inactive: [1] 0.041 | [2] -0.007 | [3] 0.008 | [4] 0.023 | [5] -0.012 | [6] -0.011 | [7] 0.064 | [8] -0.041 | [9] 0.011 | [10] 0.011 | [11] 0.002 | [12] -0.154 | [13] -0.046 | [14] 0.013 | [15] -0.024 | [16] 0.03 | [17] 0.022 | [18] -0.008 | [19] 0.028 | [20] -0.005

More records

UTP20 (UniProt O75691)
inactive: [1] -0.144 | [2] 0.028 | [3] -0.029 | [4] -0.082 | [5] -0.026 | [6] -0.02 | [7] 0.032 | [8] -0.096 | [9] 0.034 | [10] 0.018 | [11] -0.045 | [12] -0.046 | [13] 0.007 | [14] 0.053 | [15] -0.026 | [16] 0.056 | [17] 0.059 | [18] -0.059 | [19] 0.01 | [20] -0.096

UPF1 (UniProt Q92900)
inactive: [1] -0.004 | [2] 0.015 | [3] -0.01 | [4] 0.017 | [5] -0.006 | [6] -0.007 | [7] 0.02 | [8] 0.007 | [9] -0.019 | [10] -0.023 | [11] -0.005 | [12] -0.012 | [13] 0.011 | [14] 0.008 | [15] 0.024 | [16] -0.014 | [17] 0.026 | [18] 0.008 | [19] -0.001 | [20] -0.002

USF1 (UniProt P22415)
inactive: [1] -0.075 | [2] 0.064 | [3] 0.042 | [4] 0.053 | [5] 0.074 | [6] 0.194 | [7] -0.029 | [8] 0.008 | [9] 0.014 | [10] 0.03 | [11] -0.062 | [12] 0.02 | [13] 0.13 | [14] 0.071 | [15] 0.054 | [16] 0.006 | [17] -0.002 | [18] -0.008 | [19] 0.071 | [20] 0.106

VDAC3 (UniProt Q9Y277)
inactive: [1] 0.014 | [2] 0.005 | [3] 0.006 | [4] 0.061 | [5] 0.053 | [6] -0.02 | [7] -0.078 | [8] 0.024 | [9] 0.001 | [10] -0.012 | [11] -0.018 | [12] 0.048 | [13] 0.04 | [14] -0.022 | [15] 0.05 | [16] -0.018 | [17] -0.011 | [18] 0.001 | [19] -0.005 | [20] -0.005

VIPAS39 (UniProt Q9H9C1)
inactive: [1] -0.005 | [2] -0.007 | [3] 0.04 | [4] 0.187 | [5] -0.036 | [6] -0.019 | [7] -0.015 | [8] 0.063 | [9] 0.046 | [10] 0.04 | [11] -0.079 | [12] -0.066 | [13] 0.161 | [14] 0.024 | [15] 0.306 | [16] 0.085 | [17] 0.044 | [18] -0.039 | [19] 0.008 | [20] 0.077

USP9X (UniProt Q93008)
inactive: [1] -0.013 | [2] 0.014 | [3] 0.038 | [4] -0.065 | [5] -0.053 | [6] 0.033 | [7] -0.042 | [8] -0.036 | [9] 0.03 | [10] 0.007 | [11] -0.009 | [12] -0.114 | [13] 0.016 | [14] 0.026 | [15] -0.04 | [16] 0.007 | [17] 0.023 | [18] 0.016 | [19] 0.013 | [20] 0.002

VIRMA (UniProt Q69YN4)
inactive: [1] 0.058 | [2] 0.007 | [3] 0.082 | [4] -0.005 | [5] -0.039 | [6] 0.036 | [7] -0.104 | [8] -0.08 | [9] -0.016 | [10] -0.024 | [11] 0.021 | [12] -0.094 | [13] 0.005 | [14] 0.023 | [15] -0.031 | [16] 0 | [17] -0.009 | [18] 0.014 | [19] 0.066 | [20] -0.068

UNC45A (UniProt Q9H3U1)
inactive: [1] 0.013 | [2] 0.012 | [3] 0.018 | [4] -0.022 | [5] -0.039 | [6] 0.025 | [7] 0.02 | [8] -0.081 | [9] 0.017 | [10] -0.001 | [11] -0.017 | [12] -0.146 | [13] 0 | [14] 0.018 | [15] -0.011 | [16] -0.003 | [17] 0.044 | [18] 0.006 | [19] 0.001 | [20] -0.02

USP24 (UniProt Q9UPU5)
inactive: [1] 0.003 | [2] 0.026 | [3] 0.027 | [4] -0.081 | [5] -0.05 | [6] 0.065 | [7] 0.032 | [8] -0.031 | [9] 0.026 | [10] 0.007 | [11] 0.026 | [12] -0.093 | [13] -0.003 | [14] -0.006 | [15] -0.076 | [16] 0.01 | [17] -0.002 | [18] -0.011 | [19] 0.013 | [20] 0.061

UGGT2 (UniProt Q9NYU1)
inactive: [1] -0.144 | [2] -0.011 | [3] -0.099 | [4] 0.046 | [5] -0.025 | [6] 0.008 | [7] 0.057 | [8] 0.018 | [9] 0.021 | [10] 0.08 | [11] 0.01 | [12] 0.004 | [13] 0.033 | [14] -0.025 | [15] 0.01 | [16] 0.019 | [17] 0 | [18] -0.019 | [19] 0.028 | [20] 0.017
